According to PMC5144080:
These are yes or no findings as the source states them, for the method shown. Binding seen in cells or lysates may run through a third protein. Some binding calls cover weakened binding; strength is not graded here.

The chains behind the UniProt entries cited, without tags or fusion partners. Where a name states a change or a piece, a line headed by the entry shows the natural chain unless it says otherwise. A line that says so, or that is headed by a name, gives the form on record, which may keep a tag or linker.
UniProt Q9Y6K9: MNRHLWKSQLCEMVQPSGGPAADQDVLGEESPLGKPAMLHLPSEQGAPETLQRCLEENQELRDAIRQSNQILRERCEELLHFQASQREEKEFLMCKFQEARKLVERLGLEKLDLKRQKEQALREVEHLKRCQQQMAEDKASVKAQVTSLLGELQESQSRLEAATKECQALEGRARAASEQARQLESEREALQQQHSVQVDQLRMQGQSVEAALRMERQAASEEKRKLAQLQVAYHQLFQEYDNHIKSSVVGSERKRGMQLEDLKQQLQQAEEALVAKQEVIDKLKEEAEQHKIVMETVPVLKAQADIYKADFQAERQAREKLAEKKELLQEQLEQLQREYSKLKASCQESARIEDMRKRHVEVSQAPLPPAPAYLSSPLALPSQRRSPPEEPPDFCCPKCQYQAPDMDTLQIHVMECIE
GFP-tagged triple-mutated NEMO-S8, 17, 31A (Q9Y6K9, form named): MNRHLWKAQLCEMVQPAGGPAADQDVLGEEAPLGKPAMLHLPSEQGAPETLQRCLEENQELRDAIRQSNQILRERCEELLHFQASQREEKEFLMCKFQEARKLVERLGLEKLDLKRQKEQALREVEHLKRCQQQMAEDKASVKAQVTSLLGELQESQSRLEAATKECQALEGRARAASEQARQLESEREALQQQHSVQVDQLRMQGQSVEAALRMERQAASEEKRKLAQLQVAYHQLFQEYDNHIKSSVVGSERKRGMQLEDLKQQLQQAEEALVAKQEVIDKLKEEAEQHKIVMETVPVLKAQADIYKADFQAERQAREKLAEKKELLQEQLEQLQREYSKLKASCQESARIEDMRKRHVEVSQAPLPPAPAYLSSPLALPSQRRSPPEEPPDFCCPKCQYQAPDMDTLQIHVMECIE

What was measured:
[1] = molecular target: GFP-tagged triple-mutated NEMO-S8, 17, 31A (human) (UniProt Q9Y6K9); assay: co-IP; HEK293 cells transfected with GFP-tagged wild-type or S8, 17, 31A NEMO; anti-GFP immunoprecipitation (GFP Isolation Kit, Miltenyi); resting or TNFα-stimulated (10 ng/ml) cells; for p47, co-transfected with HA-tagged ubiquitin species; immunoblotting
[2] = molecular target: GFP-tagged wild-type NEMO (human), Q9Y6K9; assay: as above; details: remark: other sources report otherwise

binding [1]	binding [2]	Binder
binds	–	p47, endogenous (protein, UniProt Q9UNZ2 1-370) MAAERQEALREFVAVTGAEEDRARFFLESAGWDLQIALASFYEDGGDEDIVTISQATPSSVSRGTAPSDNRVTSFRDLIHDQDEDEEEEEGQRFYAGGSERSGQQIVGPPRKKSPNELVDDLFKGAKEHGAVAVERVTKSPGETSKPRPFAGGGYRLGAAPEEESAYVAGEKRQHSSQDVHVVLKLWKSGFSLDNGELRSYQDPSNAQFLESIRRGEVPAELRRLAHGGQVNLDMEDHRDEDFVKPKGAFKAFTGEGQKLGSTAPQVLSTSSPAQQAENEAKASSSILIDESEPTTNIQIRLADGGRLVQKFNHSHRISDIRLFIVDARPAMAATSFILMTTFPNKELADESQTLKEANLLNAVIVQRLT
–	binds	IKKα, endogenous, O15111 1-745 (enzyme) MERPPGLRPGAGGPWEMRERLGTGGFGNVCLYQHRELDLKIAIKSCRLELSTKNRERWCHEIQIMKKLNHANVVKACDVPEELNILIHDVPLLAMEYCSGGDLRKLLNKPENCCGLKESQILSLLSDIGSGIRYLHENKIIHRDLKPENIVLQDVGGKIIHKIIDLGYAKDVDQGSLCTSFVGTLQYLAPELFENKPYTATVDYWSFGTMVFECIAGYRPFLHHLQPFTWHEKIKKKDPKCIFACEEMSGEVRFSSHLPQPNSLCSLVVEPMENWLQLMLNWDPQQRGGPVDLTLKQPRCFVLMDHILNLKIVHILNMTSAKIISFLLPPDESLHSLQSRIERETGINTGSQELLSETGISLDPRKPASQCVLDGVRGCDSYMVYLFDKSKTVYEGPFASRSLSDCVNYIVQDSKIQLPIIQLRKVWAEAVHYVSGLKEDYSRLFQGQRAAMLSLLRYNANLTKMKNTLISASQQLKAKLEFFHKSIQLDLERYSEQMTYGISSEKMLKAWKEMEEKAIHYAEVGVIGYLEDQIMSLHAEIMELQKSPYGRRQGDLMESLEQRAIDLYKQLKHRPSDHSYSDSTEMVKIIVHTVQSQDRVLKELFGHLSKLLGCKQKIIDLLPKVEVALSNIKEADNTVMFMQGKRQKEIWHLLKIACTQSSARSLVGSSLEGAVTPQTSAWLPPTSAEHDHSLSCVVTPQDGETSAQMIEENLNCLGHLSTIIHEANEEQGNSMMNLDWSWLTE
